PMC4350344

Biological target: protein-kinase-C-related kinase 1 (PRK1/PKN1) (human (endogenous in PC-3M-luc2)) (UniProt Q16512)
Test: affinity purification with mass spectrometry; immunoprecipitation with an anti-PRK1 antibody from PC-3M-luc2 cell extracts, then mass spectrometry

- binding: binds
B1: sperm-associated antigen 9 (SPAG9/JIP4) (protein, UniProt O60271-1 1-1321)
chain: MELEDGVVYQEEPGGSGAVMSERVSGLAGSIYREFERLIGRYDEEVVKELMPLVVAVLENLDSVFAQDQEHQVELELLRDDNEQLITQYEREKALRKHAEEKFIEFEDSQEQEKKDLQTRVESLESQTRQLELKAKNYADQISRLEEREAELKKEYNALHQRHTEMIHNYMEHLERTKLHQLSGSDQLESTAHSRIRKERPISLGIFPLPAGDGLLTPDAQKGGETPGSEQWKFQELSQPRSHTSLKVSNSPEPQKAVEQEDELSDVSQGGSKATTPASTANSDVATIPTDTPLKEENEGFVKVTDAPNKSEISKHIEVQVAQETRNVSTGSAENEEKSEVQAIIESTPELDMDKDLSGYKGSSTPTKGIENKAFDRNTESLFEELSSAGSGLIGDVDEGADLLGMGREVENLILENTQLLETKNALNIVKNDLIAKVDELTCEKDVLQGELEAVKQAKLKLEEKNRELEEELRKARAEAEDARQKAKDDDDSDIPTAQRKRFTRVEMARVLMERNQYKERLMELQEAVRWTEMIRASRENPAMQEKKRSSIWQFFSRLFSSSSNTTKKPEPPVNLKYNAPTSHVTPSVKKRSSTLSQLPGDKSKAFDFLSEETEASLASRREQKREQYRQVKAHVQKEDGRVQAFGWSLPQKYKQVTNGQGENKMKNLPVPVYLRPLDEKDTSMKLWCAVGVNLSGGKTRDGGSVVGASVFYKDVAGLDTEGSKQRSASQSSLDKLDQELKEQQKELKNQEELSSLVWICTSTHSATKVLIIDAVQPGNILDSFTVCNSHVLCIASVPGARETDYPAGEDLSESGQVDKASLCGSMTSNSSAETDSLLGGITVVGCSAEGVTGAATSPSTNGASPVMDKPPEMEAENSEVDENVPTAEEATEATEGNAGSAEDTVDISQTGVYTEHVFTDPLGVQIPEDLSPVYQSSNDSDAYKDQISVLPNEQDLVREEAQKMSSLLPTMWLGAQNGCLYVHSSVAQWRKCLHSIKLKDSILSIVHVKGIVLVALADGTLAIFHRGVDGQWDLSNYHLLDLGRPHHSIRCMTVVHDKVWCGYRNKIYVVQPKAMKIEKSFDAHPRKESQVRQLAWVGDGVWVSIRLDSTLRLYHAHTYQHLQDVDIEPYVSKMLGTGKLGFSFVRITALMVSCNRLWVGTGNGVIISIPLTETNKTSGVPGNRPGSVIRVYGDENSDKVTPGTFIPYCSMAHAQLCFHGHRDAVKFFVAVPGQVISPQSSSSGTDLTGDKAGPSAQEPGSQTPLKSMLVISGGEGYIDFRMGDEGGESELLGEDLPLEPSVTKAERSHLIVWQVMYGNE

Results are given in words; binding and its absence hold for the method and conditions named. Binding seen in cells or lysates may run through a third protein. A yes stands for co-enrichment or nearness to the bait. Other partners may have been found.
